# At least one structure is not confirmed: it was looked up by name or label, or the drawing left a doubt.
# Key:
# [1] = biological target: T1, glucose dehydrogenase (GlucDH) (Bacillus subtilis, UniProt P12310); experiment: SDS gel electrophoresis of GlucDH after storage with coenzyme
# Method: Test conditions: MW, 10 220 kDa markers; 1: GlucDH/NAD, 5 weeks at 6° C.; 2: GlucDH/NAD, 5 weeks at 32° C./85% relative humidity; 3: GlucDH/cNAD, 5 weeks at 6° C.; 4: GlucDH/cNAD, 5 weeks at 32° C./85% relative humidity.
# Test conditions: MW, 10 220 kDa markers; 1: GlucDH 8.5 mg/ml, NAD, 0 hours; 2: GlucDH 8.5 mg/ml, NAD, 22 hours; 3: GlucDH 8.5 mg/ml, NAD, 96 hours; 4: GlucDH 8.5 mg/ml, NAD, 118 hours; 5: GlucDH 8.5 mg/ml, NAD, 140 hours; 6: GlucDH 8.5 mg/ml, NAD, 188 hours; 7: GlucDH 8.5 mg/ml, NAD, 476 hours; 8: GlucDH 8.5 mg/ml, cNAD, 0 hours; 9: GlucDH 8.5 mg/ml, cNAD, 188 hours; 10: GlucDH 8.5 mg/ml, cNAD, 476 hours.
# [2] = biological target: T1, glucose dehydrogenase (GlucDH); experiment: Reaction kinetics, function plot and dry blank value of GlucDH test film after storage; format: biochemical
# Method: Carba-NAD (FIG. 1A) or NAD were added to the glucose-specific GlucDH. These formulations were in each case applied to Pokalon film (Lonza) and, after drying, stored under warm and moist conditions (32° C., 85% relative humidity). The reaction kinetics and the function plot were subsequently determined at regular intervals. In parallel, at each of the times of measurement a cNAD/NAD analysis and a determination of the residual activity of the enzyme were carried out.
# However, a distinct difference in the kinetics plots is evident after 5 weeks.
# There is also a distinct difference in the blank values (dry blank value before application of a blood sample), as is evident from FIG. 3.
# The differing stability of glucose dehydrogenase in the presence of NAD and cNAD, respectively, is also evident from comparison of FIGS. 4 and 5.
# [3] = biological target: glucose dehydrogenase (Bacillus subtilis, UniProt P12310); experiment: Electrochemical glucose determination with GlucDH, coenzyme and mediator (current); settings: 25 mM coenzyme; mediator 1-(3-carboxypropoxy)-5-ethylphenazinium trifluoromethanesulfonate
# Method: FIG. 20 is a depiction of the current measured as a function of the glucose concentration in the electrochemical determination of glucose using glucose dehydrogenase in the presence of NAD and cNAD, respectively. Test conditions: 25 mM NAD and cNAD, respectively; 2.5 seconds delay; 5 seconds measurement time.
# As alternative to photometry it is also possible to employ an electrochemical measurement for the purpose of determining analytes.
compound,measurement,setting,value
"NC(=O)c1ccc[n+]([C@@H]2O[C@H](COP(=O)([O-])OP(=O)(O)OC[C@H]3O[C@@H](n4cnc5c(N)ncnc54)[C@H](O)[C@@H]3O)[C@@H](O)[C@H]2O)c1 [NAD, nicotinamide adenine dinucleotide]",enzyme band in SDS gel,"[1]; storage at 50° C., after 476 hours",virtually disappeared
same,"GlucDH band in SDS gel, change on storage","[1]; storage at 50° C., liquid phase",new bands appear at higher molecular masses and there is a shift in the 30 kDa band
same,enzyme band in SDS gel,[1]; storage for 5 weeks at 32° C. and 85% relative humidity,completely disappeared
same,function plot of GlucDH after storage,"[2]; after 5 weeks at 32° C., 85% humidity",shows a fall-off at higher concentrations
same,kinetics plots of GlucDH after storage,"[2]; after 5 weeks at 32° C., 85% relative humidity",decrease greatly in their dynamics
same,dry blank value (before application of blood sample),"[2]; up to 5 weeks at 32° C., 85% humidity",rise in the dry blank value
same,current required to reoxidize the reduced mediator versus glucose concentration,[3],linearly dependent on the glucose concentration
